# In PubChem BioAssay AID2685 (National Center for Advancing Translational Sciences (NCATS), 2010):
# Some of the results follow. Shown are side measurements of this screen, not its main read-out; they come without a call. Compounds called inactive in the main read-out are mostly missing here. Potencies come from curve fits of mixed quality, noted in brackets.
# Assay: qHTS Assay for Lipid Storage Modulators in Drosophila S3 Cells;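 on cell number change: cells counted by Cell Tracker Red CMTPX staining in the red channel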
# Conditions: BODIPY lipid droplet fluorescence, 18-24 h; for cell number change: measured here: cell count max response, cells fed with added oleic acid
# Procedure, shortened: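 Laser-scanning cytometry quantifies lipid droplet accumulation (500–530 nm total intensity; droplet/cell object ratio) in oleic acid-fed (400 uM added) Drosophila S3 cells treated with a concentration series. 20 uM Triacsin C defined 100% inhibition.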
# [1] = measured here: lipid fluorescence (Fed channel) AC50, cells fed with added oleic acid
# [2] = measured here: cell number channel AC50, cells fed with added oleic acid
SMILES,cell number change [%],AC50 [1],AC50 [2]
CCc1ccccc1N(C)S(=O)(=O)c1ccc(-c2cc(C)no2)s1,-5.9,"29.1 µM [falling, single point]",
CCS(=O)(=O)N1CCC(C(=O)NCc2ccc(F)cc2Cl)CC1,-8.77,"0.103 µM [falling, partial curve, poor fit]",
CCc1nc(C#N)c(N2CCOCC2)o1,-7.54,,
Cc1ccc(NC(=O)Cn2nnc(-c3ccccc3NC(=O)c3cccs3)n2)cc1,-3.24,"0.461 µM [rising, partial curve, poor fit]",
Cc1ccccc1NC(=O)CSc1nnc(-c2ccccn2)o1,9.4,"3.26 µM [falling, full curve]",
Cc1ccccc1CNC(=O)Cn1cnc(S(=O)(=O)N2CCCC2)c1,-17.4,"0.259 µM [falling, partial curve, poor fit]",
CCc1ccc(C(=O)CN2C(=O)NC3(CCc4ccccc43)C2=O)cc1 (stereo not drawn),-2.63,"0.103 µM [rising, full curve, poor fit]",
O=C(CSCc1ccccc1)Nc1ccc(F)c(F)c1,-29.6,"14.6 µM [falling, single point]",
O=C(CN1CCN(C(=O)c2ccco2)CC1)Nc1ccc2c(c1)OCCO2,20.4,"16.4 µM [rising, single point]",
C1CCC(c2nn3c(-c4n[nH]c5c4CCC5)nnc3s2)CC1,-32.7,,"1.3 µM [falling, full curve, poor fit]"
O=c1cc2[nH]c3ccccc3c(=O)n2nc1-c1ccccc1,7.22,"0.291 µM [falling, partial curve, poor fit]",
CCOCC(O)CS(=O)Cc1ccccc1 (stereo not drawn),0.828,"0.0731 µM [falling, full curve, poor fit]",
Cc1cccc(C)c1NC(=O)CN(C)C(C)C(=O)Nc1ccccc1-c1ccccc1 (stereo not drawn),-8.06,,
COc1ccc(CNC(=O)c2cc(=O)c3cc(C)ccc3o2)cc1,-44.2,"32.6 µM [falling, single point]","29.1 µM [falling, single point]"
COc1ccc(CNc2nc(C)cc(C)c2C#N)cc1,12,"29.1 µM [rising, single point]",
Cn1c(=NC(=O)C2CC2)sc2cc(F)cc(F)c21,-6.57,,
O=c1oc2ccccc2cc1-c1csc(Cc2nc(-c3ccc(Br)cc3)cs2)n1,,"0.411 µM [rising, partial curve, poor fit]","0.411 µM [rising, partial curve, poor fit]"
CCCc1[nH]n(-c2ccc([N+](=O)[O-])cc2)c(=O)c1C=NCCc1ccc(OC)c(OC)c1,16.5,"20.6 µM [rising, single point]",
Cc1ccc2oc(=O)c3cc(C(=O)NCCCN4CCCC(C)C4)sc3c2c1 (stereo not drawn),22.4,"29.1 µM [rising, partial curve]",
O=C(Nc1cccc(F)c1)c1ccc(S(=O)(=O)N2CCCCC2)cc1,48.4,"7.94 µM [falling, partial curve, poor fit]","20 µM [rising, partial curve, poor fit]"
CCC(C)[C@H]1CNCCN1CCC12CC3CC(CC(C3)C1)C2 (stereo partly drawn),-7.01,"3.66 µM [rising, single point]",
CCOC(=O)c1sc(NC(=O)c2ccco2)c(C#N)c1C,-1.1,"18.4 µM [rising, single point]",

SMILES,cell number change [%],AC50 [1],AC50 [2]
CCC(=O)c1ccc(CCCCCC(=O)O)s1,-16.1,"2.91 µM [falling, partial curve, poor fit]",
COc1ccccc1NC(=S)NC(=O)CCCOc1ccc(Cl)cc1Cl,-3.93,,
Fc1ccc(-c2cc(C(F)(F)F)nc(NCC3CCCO3)n2)cc1 (stereo not drawn),-42.5,,"18.4 µM [falling, partial curve, poor fit]"
COc1ccc(COC(=O)c2cc(S(=O)(=O)N3CCCCC3)ccc2N2CCOCC2)cc1,-3.59,"3.26 µM [rising, partial curve]",
Cc1ccc(-n2c(C)cc(C(=O)CN3CCOCC3)c2C)cc1,,"6.51 µM [rising, single point]",
O=C(CSc1nnnn1-c1ccccc1Cl)Nc1ccc2c(c1)OCCO2,25.3,,
O=S(=O)(Nc1cccc(-c2cn3c(n2)SCC3)c1)c1cccs1,32.4,,"0.411 µM [rising, full curve]"
CCCOC(=O)Nc1ccc(C(N)=O)cc1,-0.41,,"0.231 µM [falling, full curve]"
NC(=O)C1CCCN(C(=S)NCc2ccc3c(c2)OCO3)C1 (stereo not drawn),10.8,,"0.731 µM [falling, single point]"
O=C1CCCc2nc(NCc3ccco3)ncc21,-0.434,,
Cn1c(=O)c2cc(NC(=O)c3ccccc3Cl)c(=O)oc2n(C)c1=O,-6.25,,
Cc1oc2c(O)c(O)ccc2c(=O)c1-c1cnn(-c2ccccc2)c1,-26.2,,"0.517 µM [falling, full curve, poor fit]"
CN(C)CCCCOc1ccc(Br)cc1Cl,18.6,,"3.26 µM [falling, single point]"
O=C(NCc1ccccn1)C(=O)NCC1OCCCN1S(=O)(=O)c1ccc(F)cc1 (stereo not drawn),16.1,"29.1 µM [rising, single point]","2.06 µM [rising, partial curve, poor fit]"
CCOc1ccc(N(C(C)C(=O)N2CCCCCC2)S(C)(=O)=O)cc1 (stereo not drawn),-3.67,"29.1 µM [falling, single point]",
O=[N+]([O-])c1cc2c(cc1CN1CCN(c3ccccc3)CC1)OCO2,-5.11,"29.1 µM [falling, single point]",
Cn1c(N)c(C(=O)COC(=O)CSc2ccc3ccccc3c2)c(=O)n(C)c1=O,-0.563,"6.51 µM [rising, single point]",
C=CCn1c(SCC(=O)c2cccs2)nc2sc(CC)cc2c1=O,-4.74,,
O=C(Nc1sccc1C(=O)N1CCOCC1)c1cccnc1,,"0.58 µM [falling, single point]",
O=C(Nc1cccc(Cl)c1Cl)c1cc(S(=O)(=O)NCCc2ccccc2)ccc1F,,"0.092 µM [rising, partial curve]","1.64 µM [rising, partial curve, poor fit]"
CCOC(=O)c1ccc(N=Nc2c(C)[nH]n(-c3ccccc3)c2=O)cc1,27.7,"3.26 µM [falling, full curve]","0.731 µM [rising, full curve, poor fit]"
Cc1nn2c(NCCN3CCOCC3)c3c(nc2c1-c1ccccc1)CCCC3,-14,"16.4 µM [falling, single point]",

SMILES,cell number change [%],AC50 [1],AC50 [2]
C/C(=N\NC(=O)CSCc1ccc([N+](=O)[O-])cc1)c1cccc(Br)c1,8.31,"1.64 µM [rising, single point]","6.51 µM [rising, partial curve, poor fit]"
Cc1ccc(/C=N/NC(=O)c2cccs2)cc1[N+](=O)[O-],-14,"2.31 µM [rising, partial curve, poor fit]",
CCCSC1=N/C(=C/c2ccsc2)C(=O)N1c1ccccc1,20.5,"1.16 µM [falling, single point]","0.517 µM [falling, single point]"
Cc1nonc1NC(=O)CSc1nc2ccc(Cl)cc2[nH]1,10.4,"29.1 µM [rising, partial curve]",
CCN(CC(=O)Nc1ccc(C)c(F)c1)CC(=O)NC(C)C,-2.98,"0.0058 µM [rising, full curve, poor fit]",
O=C(NCCN1CCOCC1)c1ccccc1Cl,17.5,,
O=C(CCc1nc(-c2ccccc2F)no1)NC1CCCCCC1,-21.3,"1.46 µM [rising, partial curve]",
Cc1cccc(N=Nc2c(N)n[nH]c2-c2ccc(Cl)cc2)c1,-73.8,"20.6 µM [falling, single point]","20.6 µM [falling, partial curve]"
Cc1ccccc1-n1c(SCC(=O)N/N=C/c2c(C)nn(-c3ccccc3)c2C)nc2ccccc2c1=O,,"0.103 µM [falling, full curve]",
CC(C)OC(=O)CSc1nnc(Cc2ccccc2)n1CC1CCCO1 (stereo not drawn),5.95,,
CCOC(=O)C1=C(C)NC(C)=C(C(=O)OCC)C1C(=O)OCC(=O)N1c2ccccc2CC1C (stereo not drawn),6.11,,
Cn1c(=O)[nH]c(=O)c2c1nc(Br)n2Cc1ccccc1Cl,-2.52,"11.6 µM [rising, partial curve]",
O=C(CN(Cc1ccccc1)S(=O)(=O)c1ccc(Cl)cc1)NCC1CCCO1 (stereo not drawn),19.7,,
COc1ccccc1NS(=O)(=O)c1ccc(C(N)=O)cc1,0.616,"4.61 µM [rising, full curve, poor fit]",
O=C(CSc1nnnn1-c1cccnc1)Nc1ccccc1F,-4.7,"5.8 µM [rising, full curve]",
COc1cc2c(cc1OC)CN(C(=O)c1ccco1)CC2,2.1,,
CCOC(=O)c1cnc(-n2nc(C)cc2C)nc1Nc1cccc(C(=O)O)c1,9.71,,
Cc1cc(C(=O)CSc2nnnn2-c2ccccc2)c(C)n1-c1ccc2c(c1)OCO2,8.15,"0.103 µM [falling, full curve, poor fit]",
COc1ccc(-c2ccc(C(=S)N3CCN(C(C)=O)CC3)o2)cc1,-14.4,,
O=[N+]([O-])c1ccc(Cl)c(/C=N/Nc2nc(N3CCOCC3)nc(N3CCOCC3)n2)c1,28.2,"3.66 µM [rising, full curve]","0.231 µM [rising, full curve, poor fit]"

# Two of these compounds, reformatted.
SMILES	cell number change [%]	AC50 [1]	AC50 [2]
CCCSC1=N/C(=C/c2ccsc2)C(=O)N1c1ccccc1	20.5	1.16 µM [falling, single point]	0.517 µM [falling, single point]
Cc1ccccc1-n1c(SCC(=O)N/N=C/c2c(C)nn(-c3ccccc3)c2C)nc2ccccc2c1=O		0.103 µM [falling, full curve]	
